Reference: patent US20260266848A1, “COMPOSITIONS AND METHODS FOR DIAGNOSING AND TREATING DYSTONIA” (Duke University, priority 2023, published 2026)

Columns and labels:
[1] = test system: DYT1 patient plasma derived EVs; experiment: Plasma-derived EV proteomics (ExoQuick ULTRA, DIA LC/MS/MS), DYT1 vs Healthy Controls; parameters: species or system human; details: for Mean DYT1 / Mean HC: protein abundance; for Mean DYT1: DYT1 patients; for Mean HC: healthy controls (HC)
How it was run: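 Quantitative LC/MS/MS in data-independent acquisition on an Orbitrap Astral (4 m/z windows over m/z 380-980, HCD 27%), 500 ng of each EV sample. EVs were isolated from plasma by ExoQuick ULTRA, separated by EvoSep SPD30 gradient at 50 C.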

DYT-TOR1A MEF EVs = experiment: Quantitative LC-MS/MS proteomics of EVs from drug-treated DYT-TOR1A MEF cultures (ritonavir, salubrinal); assay type: cell-based, mouse; details: was treatment in MEF's in the direction of WT-like?

Molecule	Mean DYT1 [1]	Mean HC [1]	RTV Corrective Direction (DYT-TOR1A MEF EVs; Ritonavir)	Sal Corrective Direction (DYT-TOR1A MEF EVs; Salubrinal)	Directionality ([1]; Hs. Plasma EVs (DYT1/WT))	Log2_FC ([1]; Hs. Plasma EVs (DYT1/WT), protein level, human patient derived EVs by genotype)	Hs. Plasma EVs (DYT1/WT) ([1]; directionality of protein change, human plasma derived EVs, DYT1 vs WT(HC))
DDOST (protein, UniProt P39656 43-456, looked up) Dolichyl-diphosphooligosacchar …: SGPRTLVLLDNLNVRETHSLFFRSLKDRGFELTFKTADDPSLSLIKYGEFLYDNLIIFSPSVEDFGGNINVETISAFIDGGGSVLVAASSDIGDPLRELGSECGIEFDEEKTAVIDHHNYDISDLGQHTLIVADTENLLKAPTIVGKSSLNPILFRGVGMVADPDNPLVLDILTGSSTSYSFFPDKPITQYPHAVGKNTLLIAGLQARNNARVIFSGSLDFFSDSFFNSAVQKAAPGSQRYSQTGNYELAVALSRWVFKEEGVLRVGPVSHHRVGETAPPNAYTVTDLVEYSIVIQQLSNGKWVPFDGDDIQLEFVRIDPFVRTFLKKKGGKYSVQFKLPDVYGVFQFKVDYNRLGYTHLYSSTQVSVRPLQHTQYERFIPSAYPYYASAFSMMLGLFIFSIVFLHMKEKEKSD	3.994	4.66	–	–	–	–	–
Zyx (protein, UniProt Q62523 2-564, looked up) Zyxin: AAPRPPPAISVSVSAPAFYAPQKKFAPVVAPKPKVNPFRPGDSEPPVAAGAQRAQMGRVGEIPPPPPEDFPLPPPPLIGEGDDSEGALGGAFPPPPPPMIEEPFPPAPLEEDIFPSPPPPLEEEGGPEAPTQLPPQPREKVCSIDLEIDSLSSLLDDMTKNDPFKARVSSGYVPPPVATPFVPKPSTKPAPGGTAPLPPWKTPSSSQPPPQPQAKPQVQLHVQPQAKPHVQPQPVSSANTQPRGPLSQAPTPAPKFAPVAPKFTPVVSKFSPGAPSGPGPQPNQKMVPPDAPSSVSTGSPQPPSFTYAQQKEKPLVQEKQHPQPPPAQNQNQVRSPGGPGPLTLKEVEELEQLTQQLMQDMEHPQRQSVAVNESCGKCNQPLARAQPAVRALGQLFHITCFTCHQCQQQLQGQQFYSLEGAPYCEGCYTDTLEKCNTCGQPITDRMLRATGKAYHPQCFTCVVCACPLEGTSFIVDQANQPHCVPDYHKQYAPRCSVCSEPIMPEPGRDETVRVVALDKNFHMKCYKCEDCGKPLSIEADDNGCFPLDGHVLCRKCHSARAQT	–	–	Yes	Yes	–	–	–
MARS1 (protein, UniProt P56192 1-900, looked up) Methionine--tRNA ligase, …: MRLFVSDGVPGCLPVLAAAGRARGRAEVLISTVGPEDCVVPFLTRPKVPVLQLDSGNYLFSTSAICRYFFLLSGWEQDDLTNQWLEWEATELQPALSAALYYLVVQGKKGEDVLGSVRRALTHIDHSLSRQNCPFLAGETESLADIVLWGALYPLLQDPAYLPEELSALHSWFQTLSTQEPCQRAAETVLKQQGVLALRPYLQKQPQPSPAEGRAVTNEPEEEELATLSEEEIAMAVTAWEKGLESLPPLRPQQNPVLPVAGERNVLITSALPYVNNVPHLGNIIGCVLSADVFARYSRLRQWNTLYLCGTDEYGTATETKALEEGLTPQEICDKYHIIHADIYRWFNISFDIFGRTTTPQQTKITQDIFQQLLKRGFVLQDTVEQLRCEHCARFLADRFVEGVCPFCGYEEARGDQCDKCGKLINAVELKKPQCKVCRSCPVVQSSQHLFLDLPKLEKRLEEWLGRTLPGSDWTPNAQFITRSWLRDGLKPRCITRDLKWGTPVPLEGFEDKVFYVWFDATIGYLSITANYTDQWERWWKNPEQVDLYQFMAKDNVPFHSLVFPCSALGAEDNYTLVSHLIATEYLNYEDGKFSKSRGVGVFGDMAQDTGIPADIWRFYLLYIRPEGQDSAFSWTDLLLKNNSELLNNLGNFINRAGMFVSKFFGGYVPEMVLTPDDQRLLAHVTLELQHYHQLLEKVRIRDALRSILTISRHGNQYIQVNEPWKRIKGSEADRQRAGTVTGLAVNIAALLSVMLQPYMPTVSATIQAQLQLPPPACSILLTNFLCTLPAGHQIGTVSPLFQKLENDQIESLRQRFGGGQAKTSPKPAVVETVTTAKPQQIQALMDEVTKQGNIVRELKAQKADKNEVAAEVAKLLDLKKQLAVAEGKPPEAPKGKKKK	4.049	5.24	–	–	DOWN	-1.187	DOWN
SLPI (protein, UniProt P03973 26-132, looked up) Antileukoproteinase: SGKSFKAGVCPPKKSAQCLRYKKPECQSDWQCPGKKRCCPDTCGIKCLDPVDTPNPTRRKPGKCPVTYGQCLMLNPPNFCEMDGQCKRDLKCCMGMCGKSCVSPVKA	5.326	6.42	–	–	–	–	–
